The list does not hold the whole screen: it gathers tests that were run many times, whatever their T/C, doses with no T/C, and many T/C values between a quarter and a half above the control. Other doses and runs of a compound stand elsewhere. T/C gives the treated animals as a percentage of the vehicle group. Some entries give survivors of the animals treated and no T/C: the source holds a T/C of zero for them, seemingly a mark for toxic or unscored doses. Some doses without a T/C left all or most animals alive at the check, yet need not have been tolerated: the source hardly ever lists a survival T/C far under the control, and the zero likely stands for such cases as well. Survivors were counted at the toxicity check, usually on the fifth day, unless a day is given; later deaths do not show. Schedules are NCI's codes, read here as Q, the interval in days (D) or hours (H), X, the number of doses. Some entries hold several experiments; the results are listed from low to high. Some structures stand for samples that the source files as different forms (salt, stereo form or complex); doses refer to the form tested. Where survival is the endpoint, this PubChem deposit counts one and a half times the control or more as active, and values a quarter to a half above the control carry no call in these data; other NCI protocols may use other cut-offs. Marks such as (2×) say how often a value occurs here. Some T/C values carry the count of animals alive at the toxicity check (mostly the fifth day); without a count, all were alive then.

Among the data in PubChem BioAssay AID330 (DTP/NCI, 2004) are T/C and survivor count values, retold here.

The assay concerns P388 leukemia ip, CD2F1 mice, survival T/C. Kind of assay: NCI In Vivo Anticancer Drug Screen. Data for tumor model P388 Leukemia (intraperitoneal) in CD2F1 (CDF1) mice. To be noted: T/C endpoint: median survival time, higher T/C = longer survival.
[1] abbreviates: dose: 50.0 mg/kg/injection, schedule: Q01DX009 (ip), vehicle: saline.
The mark [2] stands for this setting: dose: 100.0 mg/kg/injection, schedule: Q01DX009 (ip), vehicle: saline.
[3] abbreviates: dose: 200.0 mg/kg/injection, schedule: Q01DX009 (ip), vehicle: saline.
Setting [4] is: dose: 200.0 mg/kg/injection, schedule: Q04DX002 (ip), vehicle: saline.
The mark [5] stands for this setting: dose: 400.0 mg/kg/injection, schedule: Q04DX002 (ip), vehicle: saline.
Setting [6] is: dose: 200.0 mg/kg/injection, schedule: Q04DX002 (ip), vehicle: Klucel (hydroxypropylcellulose) (HPC).
Setting [7] is: dose: 100.0 mg/kg/injection, schedule: Q01DX009 (ip), vehicle: saline with Tween-80.
Setting [8] is: dose: 200.0 mg/kg/injection, schedule: Q01DX009 (ip), vehicle: saline with Tween-80.
Setting [9] is: dose: 50.0 mg/kg/injection, schedule: Q01DX009 (ip), vehicle: Klucel (hydroxypropylcellulose) (HPC).
[10] abbreviates: dose: 240.0 mg/kg/injection, schedule: Q01DX005 (ip), vehicle: saline with Tween-80.
The mark [11] stands for this setting: dose: 25.0 mg/kg/injection, schedule: Q01DX009 (ip), vehicle: Klucel (hydroxypropylcellulose) (HPC).
Where [12] appears, read: dose: 100.0 mg/kg/injection, schedule: Q01DX009 (ip), vehicle: Klucel (hydroxypropylcellulose) (HPC).
The mark [13] stands for this setting: dose: 200.0 mg/kg/injection, schedule: Q01DX009 (ip), vehicle: Klucel (hydroxypropylcellulose) (HPC).
Where [14] appears, read: dose: 100.0 mg/kg/injection, schedule: Q01DX005 (ip), vehicle: saline with Tween-80.
[15] abbreviates: dose: 200.0 mg/kg/injection, schedule: Q01DX005 (ip), vehicle: saline with Tween-80.
The mark [16] stands for this setting: dose: 200.0 mg/kg/injection, schedule: Q04DX003 (ip), vehicle: distilled water + Tween-80.
Setting [17] is: dose: 400.0 mg/kg/injection, schedule: Q04DX003 (ip), vehicle: distilled water + Tween-80.
Setting [18] is: dose: 200.0 mg/kg/injection, schedule: Q01DX005 (ip), vehicle: Klucel (hydroxypropylcellulose) (HPC).
[19] abbreviates: dose: 400.0 mg/kg/injection, schedule: Q01DX009 (ip), vehicle: saline with Tween-80.

As for `CC(=O)SCN1CCCCC1`, the T/C under setting [1] was 132 % of control; the T/C under setting [2] was 127 and 137 % of control. The survivor count under setting [3] is on record as 2 of 6, the survivor count under setting [4] is on record as 2 of 6 and the survivor count under setting [5] is reported as 0 of 6.

Consider `CC(=O)ON(C(=O)c1ccc([N+](=O)[O-])cc1)c1ccc(C=O)cc1`, for which, under “dose: 400.0 mg/kg/injection, schedule: Q01DX001 (ip), vehicle: saline with Tween-80”, the survivor count is 3 of 6.

`CCCCCCCCCCNCCSSCc1ccccc1`: the survivor count runs as follows: under setting [6], 3 of 5; (dose: 400.0 mg/kg/injection, schedule: Q04DX002 (ip), vehicle: Klucel (hydroxypropylcellulose) (HPC)) 4 of 5.

Take `N=C(N)Sc1cc(O)c(O)c2ccccc12`: the survivor count was 3 of 6 (dose: 25.0 mg/kg/injection, schedule: Q01DX005 (ip), vehicle: saline); 0 of 6 (dose: 50.0 mg/kg/injection, schedule: Q01DX005 (ip), vehicle: saline); 0 of 6 (dose: 100.0 mg/kg/injection, schedule: Q01DX005 (ip), vehicle: saline); 0 of 6 (dose: 200.0 mg/kg/injection, schedule: Q01DX005 (ip), vehicle: saline).

In the case of `COC1(OC)C2C=CC1CC2`, the T/C by setting is: under setting [7], 131 % of control; under setting [8], 127 % of control.

With `NC(=S)Nc1cccc2ccccc12`, the survivor count was 4 of 6 (dose: 50.0 mg/kg/injection, schedule: Q01DX009 (ip), vehicle: saline with Tween-80); 0 of 6 and 3 of 6 (dose: 75.0 mg/kg/injection, schedule: Q01DX009 (ip), vehicle: saline with Tween-80).

As for `O=C(Nc1ccc(Cl)cc1)OC1CCS(=O)(=O)C1` (stereo not drawn), the survivor count under setting [9] is listed as 6 of 6.

Take `Oc1ccc2ccccc2c1C=NCCS`: under setting [10], the survivor count is 6 of 6.

As for `CCCCCCCCCC(C)CC(=O)NCCCN(C)CCCCN(C)C` (stereo not drawn) (tested in a mixture with another compound), the survivor count is, setting by setting: under setting [11], 0 of 6; under setting [9], 0 of 6; under setting [12], 0 of 6; under setting [13], 0 of 6.

Consider `C=C=CCN(C)Cc1ccccc1`, for which the survivor count is 2 of 6 and 3 of 6 under setting [4]; 0 of 6 under setting [5].

As to `O=C(NCCCCCCCCCCNC(=O)C12CC3CC(CC(C3)C1)C2)C12CC3CC(CC(C3)C1)C2`, the survivor count under setting [14] is given as 6 of 6 and the survivor count under setting [15] was 6 of 6.

With `CN(C)C1CC2CCCCC2CC1O` (stereo not drawn), for the setting “dose: 400.0 mg/kg/injection, schedule: Q01DX001 (ip), vehicle: saline”, the survivor count is 1 of 6.

`Cc1ccc(C(C)C)c2c1CN(CCCN1COc3c(C(C)C)ccc(C)c3C1)CO2`: under setting [10], the survivor count was 6 of 6.

In the case of `COCCC(=NC(C)(C)C)Nc1c(Cl)cccc1Cl`, the survivor count under setting [3] is 4 of 6.

With `Cc1cc2nc(CC(=O)c3ccc4ccccc4c3)c(=O)[nH]c2cc1C`, the survivor count reads like this: (dose: 120.0 mg/kg/injection, schedule: Q01DX005 (ip), vehicle: saline with Tween-80) 6 of 6; under setting [10], 4 of 6.

Take `c1ccc(CCNC2CCc3ccccc3C2)cc1` (stereo not drawn): the survivor count by setting is: under setting [14], 2 of 6; under setting [15], 0 of 6.

For the compound `COc1cc2c[n+]3ccc4ccccc4c3c(N)c2cc1OC`, the survivor count reads like this: under setting [16], 4 of 6; under setting [17], 0 of 6.

In the case of `COc1cc2c(cc1OC)[C@H]1[C@H](C)c3ccc4c(c3CN1CC2)OCO4`, the survivor count reads like this: (dose: 100.0 mg/kg/injection, schedule: Q04DX002 (ip), vehicle: Klucel (hydroxypropylcellulose) (HPC)) 4 of 5; under setting [6], 0 of 5.

On to `O=C(CBr)N1c2ccccc2Sc2c1ccc1ccccc21`, for which, where the note is “dose: 400.0 mg/kg/injection, schedule: Q04DX003 (ip), vehicle: Klucel (hydroxypropylcellulose) (HPC)”, the survivor count is on record as 0 of 6.

For `CCOC(=O)c1ccc(NC(=O)SC2=NCCS2)cc1`, the survivor count under setting [13] is 2 of 6.

On to `CC[n+]1cccc2ccccc21`, for which the survivor count (dose: 400.0 mg/kg/injection, schedule: Q04DX003 (ip), vehicle: saline with Tween-80) was 0 of 6.

As for `CC(C)([CH2][Sn]([Cl])([CH2]C(C)(C)c1ccccc1)[O][Sn]([Cl])([CH2]C(C)(C)c1ccccc1)[CH2]C(C)(C)c1ccccc1)c1ccccc1`, the T/C (dose: 12.5 mg/kg/injection, schedule: Q01DX005 (ip), vehicle: Klucel (hydroxypropylcellulose) (HPC)) is 133 % of control. Further, the survivor count reads like this: (dose: 50.0 mg/kg/injection, schedule: Q01DX005 (ip), vehicle: Klucel (hydroxypropylcellulose) (HPC)) 5 of 6; (dose: 100.0 mg/kg/injection, schedule: Q01DX005 (ip), vehicle: Klucel (hydroxypropylcellulose) (HPC)) 1 of 6; under setting [18], 0 of 6.

Take `O=C1C(Cl)=C(Nc2cccc3ccccc23)C(=O)c2ccccc21`: the survivor count under setting [14] was 3 of 6 and the survivor count under setting [15] is listed as 0 of 6.

With `CC(=O)N(O)c1ccc2c(c1)Cc1cc(F)ccc1-2`, the T/C under setting [14] was 125 % of control and the T/C under setting [15] is 147 % of control.

With `Oc1ccc[nH]c1=S`, the T/C is 98, 99, 100, 104 % of control (dose: 25.0 mg/kg/injection, schedule: Q01DX009 (ip), vehicle: saline); 96, 99, 101 % of control (2×) under setting [1]; 98, 100, 105, 109 % of control under setting [2]; 86, 127, 130, 139 % of control under setting [3]. Also, under “dose: 400.0 mg/kg/injection, schedule: Q01DX009 (ip), vehicle: saline”, the survivor count is 0 of 6.

Turning to `O=C1Nc2ccccc2/C1=N/N=C/c1ccccc1Cl`, the survivor count is, setting by setting: under setting [9], 6 of 6; under setting [12], 6 of 6; under setting [13], 2 of 6.

In the case of `COc1cc(/C=N/NC(=O)CN(C)C)cc(OC)c1N(CCCl)CCCl`, the T/C reads like this: (dose: 12.5 mg/kg/injection, schedule: Q01DX009 (ip), vehicle: Klucel (hydroxypropylcellulose) (HPC)) 136 % of control; under setting [11], 149 % of control.

For the compound `CC1(C)[S][Sn]2[NH]C1C(=O)[O]2` (stereo not drawn), the survivor count under setting [18] is recorded as 3 of 6.

In the case of `COc1cc2c(cc1O)C(=O)CCC(C(=O)O)=C2`, the survivor count is 6 of 6 under setting [8] and 6 of 6 under setting [19].

For `COc1cc2cc[n+]3cc4c(ccc5ccccc54)cc3c2cc1OC`, the T/C is 146 % of control (dose: 3.13 mg/kg/injection, schedule: Q04DX003 (ip), vehicle: distilled water + Tween-80); 127 % of control (dose: 3.13 mg/kg/injection, schedule: Q04DX003 (ip), vehicle: water); 142 % of control [5 of 6 alive] (dose: 6.25 mg/kg/injection, schedule: Q04DX003 (ip), vehicle: water); 148 % of control (dose: 25.0 mg/kg/injection, schedule: Q04DX003 (ip), vehicle: water). Besides, the survivor count is, setting by setting: (dose: 50.0 mg/kg/injection, schedule: Q04DX003 (ip), vehicle: distilled water + Tween-80) 0 of 6 and 3 of 4; (dose: 100.0 mg/kg/injection, schedule: Q04DX003 (ip), vehicle: distilled water + Tween-80) 0 of 4; under setting [16], 0 of 4; under setting [17], 0 of 4.

For the compound `S=c1nc[nH]c2c1ncn2CN1CCCCC1`, the T/C is, setting by setting: (dose: 100.0 mg/kg/injection, schedule: Q01DX009 (ip), vehicle: saline sonified) 131 % of control; under setting [7], 127 % of control. Moreover, the survivor count runs as follows: under setting [8], 5 of 6; under setting [19], 0 of 6.
